Measurements reported in patent US20240294588A1, “C2 Domain Therapeutics and Uses Thereof” (University of Maryland, Baltimore, priority 2021, published 2024).
“Also recorded” adds a separate entry of the source. Read-outs that look alike come from different tables or passages of the source.

Tested on: dysferlin-null A/J myofibers
Experiment: Distribution of Venus-tagged constructs (triad junctions vs Z-disks) in transfected myofibers
Assay type: cell-based, mouse
Description: FIGS. 2A-2E show the DYSF-C2A distribution and partial protection against loss of Ca^2+ transient and development of Ca^2+ waves after OSI. The construct in FIG. 2A was electroporated into Flexor digitorum brevis (FDB) muscles of dysferlin-null A/J mice and imaged 10 d later. […] Distribution of the Venus construct is indicated to the right. Recovery is partial (in the upper region of fiber). FIG. 2D quantitates results from several dozen fibers of each type. […] Higher levels of expression show more consistent recoveries and suppression of waves than lower levels.
The constructs in FIG. 4A were electroporated and visualized as in FIG. 2. […] Recovery is complete. FIG. 4D quantitates results from several dozen fibers transfected with each construct. […] Note the high level of Ca release and low frequency of waves indicated by the y-intercepts at low transfection levels.
A Venus-tagged version of the C2 domain of PKCα was expressed in both control (C57Bl/6) (FIG. 12A) and dysferlin-null (A/J) myofibers (FIG. 12B) and the transfected fibers were imaged. […] They help to explain the ability of the chimeric constructs containing Ven-C2-PKCα to potentiate the beneficial effects of the DYSF-C2A domain.

Row | Substance | Distribution of construct in myofibers | Distribution of construct in myofibers (listed as Ven-C2-PKCα)
1 | C2 domain of PKCα: isolated C2 domain of PKCα (XP_024306597.1, residues 71-229), tagged with a Venus moiety | concentrates at the level of A-I junctions, probably at TJs; also recorded: concentrated at the level of the A-I junctions of A/J myofibers | partially accesses the triad junctions of some A/J fibers
2 | DYSF-C2A: C2A domain of dysferlin (AF075575.1, amino acids 1-100) expressed on its own as a Venus fusion protein; SEQ ID NO: 4 | accumulation primarily at Z-disks; also recorded: distributed throughout the myoplasm and did not concentrate at TJs | –
